# Assay results as given in PubChem BioAssay AID1671190 (National Center for Advancing Translational Sciences (NCATS), 2021).
# Chains of the proteins cited; added tags and fusions are not shown.
# UniProt P18054, whole entry, looked up: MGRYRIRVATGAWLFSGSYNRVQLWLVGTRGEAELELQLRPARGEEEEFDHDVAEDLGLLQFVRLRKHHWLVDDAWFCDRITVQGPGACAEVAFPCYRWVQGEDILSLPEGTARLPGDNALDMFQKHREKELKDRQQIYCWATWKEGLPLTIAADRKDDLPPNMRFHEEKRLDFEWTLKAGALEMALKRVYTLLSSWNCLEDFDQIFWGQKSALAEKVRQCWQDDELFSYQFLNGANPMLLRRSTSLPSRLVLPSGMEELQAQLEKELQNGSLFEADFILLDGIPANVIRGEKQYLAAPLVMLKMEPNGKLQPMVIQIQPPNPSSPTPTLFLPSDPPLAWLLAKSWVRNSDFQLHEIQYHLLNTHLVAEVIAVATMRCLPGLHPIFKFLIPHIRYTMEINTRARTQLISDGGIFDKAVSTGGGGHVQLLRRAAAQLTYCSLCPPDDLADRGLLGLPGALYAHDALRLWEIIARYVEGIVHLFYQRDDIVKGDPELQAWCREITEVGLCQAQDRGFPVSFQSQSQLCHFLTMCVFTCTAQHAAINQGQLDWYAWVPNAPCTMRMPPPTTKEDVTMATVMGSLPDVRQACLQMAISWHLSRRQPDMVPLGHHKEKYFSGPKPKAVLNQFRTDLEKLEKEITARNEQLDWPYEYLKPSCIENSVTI
# Screen size: about 580,000 compounds; about 6,100 (1.1%) were called active. The shares of active, inactive and inconclusive entries below differ from those in the screen. Calls come from the whole dose curve; as a rule, active = well fitted inhibition curve with a large enough effect; inconclusive = small, poorly fitted or top-dose-only effect, or another doubt; inactive = no such curve, though single readings can be large or run the other way. Where the call is inconclusive, the potency comes from a doubtful curve fit.
# Target: Polyunsaturated fatty acid lipoxygenase ALOX12 (Homo sapiens) (UniProt P18054)
# Assay: Primary qHTS assay for inhibitors of human arachidonate 12S-lipoxygenase (ALOX12): Round 2
# Details: purified 12hLO, xylenol orange hydroperoxide absorbance; series mostly up to 108 µM
# Method in brief: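 Purified human 12hLO at 150 nM in 25 mM Hepes, 0.01% Triton X-100, pH 7.0, preincubated 15 min at room temperature with compound. Reaction started with 40 uM arachidonic acid, 30 min at room temperature. Hydroperoxide measured by Fe-xylenol orange, 573/405 nm absorbance ratio.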
# Potency is the fitted concentration of half-maximal effect.
row,SMILES,Potency
1,CN(C)Cc1ccc(CNC(=O)c2nccnc2N)cc1,inactive
2,COc1ccc2[nH]c(C)c(CCNC(=S)Nc3ccc(F)cc3)c2c1,"inconclusive: 44.7 µM [inhibitor, partial curve, poor fit]"
3,C[C@@H]1[C@H](c2ccccc2)Oc2ccc(Cl)cc2S(=O)(=O)N1CC1CCCN1C(=O)OC(C)(C)C (some centres undefined),inactive
4,COc1cc2c(cc1OC)C(C)N(C(=O)c1nccnc1C(=O)O)CC2 (centres undefined),"inconclusive: 5.62 µM [inhibitor, full curve, poor fit]"
5,CCCCN(CC)C(=O)c1csc(Nc2ccccc2C)n1,"inconclusive: 28.2 µM [inhibitor, single point]"
6,O=C(Cc1ccsc1)N1CCC([C@@H]2CNC[C@H]2CO)CC1,"inconclusive: 20 µM [inhibitor, single point]"
7,CC(C)=C(NC(=O)c1ccccc1)C(=O)NC(Cc1ccccc1)C(=O)O (centres undefined),"inconclusive: 22.4 µM [inhibitor, partial curve, poor fit]"
8,COc1ccc(Cl)cc1NC(=O)CCCNC(=O)c1ccc(Cl)cc1,"inconclusive: 79.4 µM [inhibitor, single point]"
9,CCN1CCN(c2ccc(S(=O)(=O)N3CCOCC3)cc2NC(=O)C(C)Oc2ccc(F)cc2)CC1 (centres undefined),"inconclusive: 100 µM [inhibitor, single point]"
10,CCC(C)(C)NC(=O)C(c1ccccc1)N(Cc1cccnc1)C(=O)c1csnn1 (centres undefined),"inconclusive: 50.1 µM [inhibitor, partial curve, poor fit]"
11,CNc1nc2c(c(=O)n(C)c(=O)n2C)n1CCc1ccccc1,"inconclusive: 11.2 µM [inhibitor, full curve]"
12,C#CCN(C[C@@H]1[C@@H](OC(=O)NCc2ccccc2F)[C@@H](OC(=O)NCc2ccccc2F)Cn2c(=O)ccc(=O)n21)S(=O)(=O)c1ccc(C)cc1,"inconclusive: 0.224 µM [inhibitor, full curve, poor fit]"
13,COc1ccc(N2CCOC3CCN(CCCc4ccccc4)CC3C2=O)cc1 (centres undefined),"inconclusive: 3.55 µM [inhibitor, full curve, poor fit]"
14,COc1cccc(-c2nc(NC3CC3)c3ccccc3n2)c1,"inconclusive: 50.1 µM [inhibitor, partial curve, poor fit]"
15,CC1(C(=O)NC2CCN(Cc3ccccc3)CC2)CCCCC(=O)N1 (centres undefined),"inconclusive: 39.8 µM [inhibitor, partial curve, poor fit]"
16,Cc1cc(C)c2c(=O)cc(C(=O)N(Cc3cccs3)C3CCS(=O)(=O)C3)oc2c1 (centres undefined),inactive
17,CN1CCCN(S(=O)(=O)c2ccc3c(c2)OCCO3)c2ccccc21,"inconclusive: 22.4 µM [inhibitor, full curve, poor fit]"
18,O=C(NCc1ccco1)c1cc(-c2ccncc2)nc2ccccc12,"inconclusive: 50.1 µM [inhibitor, partial curve, poor fit]"
19,COc1ccccc1CNc1ccnc(-c2ccc(N(C)C)cc2)n1,active: 25.1 µM
20,COc1ccc(C(=O)NC2CCN(c3cc(-c4ccc(Cl)cc4)[nH]n3)CC2)cc1,inactive
21,COC(CNC(=O)c1ccc(-n2c(=S)[nH]c3ccccc3c2=O)cc1)OC,inactive
22,CN(C)c1cc(-c2cccc([N+](=O)[O-])c2)oc(=O)c1Cl,"inconclusive: 112 µM [inhibitor, partial curve, poor fit]"
23,C=C(C)CN1CCCC(C(=O)NCC2CC2)C1 (centres undefined),"inconclusive: 44.7 µM [inhibitor, partial curve, poor fit]"

row,SMILES,Potency
1,C=CCn1c(O)c(N=Nc2ccccc2O)c2ccccc21,"inconclusive: 39.8 µM [inhibitor, partial curve, poor fit]"
2,CC1=CC(=O)N(c2ccc(C)cc2)C1c1ccc(Cl)cc1 (centres undefined),"inconclusive: 56.2 µM [inhibitor, partial curve, poor fit]"
3,CCn1nc(C(=O)N(C)C(c2ccccc2)c2ccccc2)c2ccccc2c1=O,inactive
4,Cc1ccc(-c2nn(-c3ccc(F)cc3)cc2C(=O)NCCCN2CCCC2=O)cc1,inactive
5,CC(Sc1nc2ccccc2c(=O)[nH]1)C(=O)O (centres undefined),"inconclusive: 141 µM [inhibitor, single point]"
6,CCN(c1ccc(NC(=O)COC(=O)/C=C/c2ccco2)cc1)C(C)C,inactive
7,Cc1cc(CCC(=O)O)c(C)cc1CCC(=O)O,inactive
8,Cc1cc(Oc2nc3ccccn3c(=O)c2/C=C(\C#N)c2nc3ccccc3s2)ccc1Cl,"inconclusive: 39.8 µM [inhibitor, partial curve]"
9,COc1cccc(-c2cc(C(F)(F)F)n3nc(C(=O)N4CCCCC4c4cccnc4)cc3n2)c1 (centres undefined),"inconclusive: 89.1 µM [inhibitor, single point]"
10,COc1ccc(-c2nc3c(s2)CN(C(C(=O)O)c2c[nH]c4ccc(CO)cc24)CC3)cc1 (centres undefined),"inconclusive: 50.1 µM [inhibitor, single point]"
11,O=C(/C=C/c1cccnc1)c1ccc2cccc3c2c1CC3,"inconclusive: 7.08 µM [inhibitor, partial curve, poor fit]"
12,Cc1ccc(CSc2nc3cccnc3n2Cc2ccc(C(=O)NCc3cccs3)cc2)cc1,inactive
13,COc1ccc(OC)c(-c2cc(Cl)c3c(c2)CC(CNC(=O)c2c(F)cccc2F)O3)c1 (centres undefined),inactive
14,N/C(=N\OC(=O)/C=C/c1ccc(Br)cc1)c1ccccn1,inactive
15,Cc1ccc(Nc2nc(C(N)=O)c(NC(=O)c3ccccc3Br)s2)cc1,active: 14.1 µM
16,O=C1CCN(C(=O)[C@@H]2CCCN2S(=O)(=O)c2ccc3c(c2)CCC3)CCCCCCN1,"inconclusive: 4.47 µM [inhibitor, full curve, poor fit]"
17,Cc1ccc(S(=O)(=O)N2CCOCC2)cc1N/N=C(\C#N)c1nc2ccccc2[nH]1,inactive
18,CN(C)c1ccc(/C=N/NC(=O)c2cccs2)cc1Br,"inconclusive: 0.316 µM [inhibitor, full curve, poor fit]"
19,COc1ccc(-n2c(-c3ccc(Cl)cc3)c[nH]c2=S)cc1,"inconclusive: 8.91 µM [inhibitor, partial curve, poor fit]"
20,Cc1ccc(C(=O)N2CCC3(CC2)NC(=O)N(c2ccc(F)cc2)N3)s1,active: 2 µM
21,CCCCOc1ccccc1NC(=O)c1ccco1,inactive
22,CCC(Sc1ccc(C(=O)O)cc1)C(=O)O (centres undefined),inactive
23,Cc1cccc(NC(=S)N(Cc2ccc(Br)cc2)Cc2ccc(C(=O)O)cc2)c1,inactive

# A draw from above in order of formula weight, falling.
row,SMILES,Potency
12,Cc1ccc(CSc2nc3cccnc3n2Cc2ccc(C(=O)NCc3cccs3)cc2)cc1,inactive
3,CCn1nc(C(=O)N(C)C(c2ccccc2)c2ccccc2)c2ccccc2c1=O,inactive
11,O=C(/C=C/c1cccnc1)c1ccc2cccc3c2c1CC3,"inconclusive: 7.08 µM [inhibitor, partial curve, poor fit]"

# Later entries

row,SMILES,Potency
1,CCCn1nc2cc(C(=O)NCCc3ccc(C)cc3)ccc2c1OCC,"inconclusive: 50.1 µM [inhibitor, partial curve, poor fit]"
2,O=C(Nc1cccc(Cl)c1)Nc1nnc(-c2ccncc2)s1,"inconclusive: 50.1 µM [inhibitor, partial curve, poor fit]"
3,Cc1cc2c(sc3c(C)ccc(C)c32)c(C)n1,"inconclusive: 39.8 µM [inhibitor, partial curve, poor fit]"
4,CC(C)N1C(=O)S/C(=C\c2cc(Br)ccc2OCc2ccc(C(=O)O)cc2)C1=O,"inconclusive: 44.7 µM [inhibitor, partial curve, poor fit]"
5,COCCNc1cc(N)c([N+](=O)[O-])cc1[N+](=O)[O-],"inconclusive: 89.1 µM [inhibitor, partial curve, poor fit]"
6,Cc1cc(-c2cccc(COc3ccc4c(cnn4CC[S+](C)(=O)[O-])c3)c2)ccn1,"inconclusive: 50.1 µM [inhibitor, full curve]"
7,COc1cc(OC)c2c(-c3cccc(-c4ccc(O)cc4)c3)cc(=O)oc2c1,"inconclusive: 112 µM [inhibitor, single point]"
8,Cc1ccc(N=Nc2c(N)n[nH]c2N)cc1,inactive
9,COc1ccc(CNCCC(c2ccc(OC(C)C)cc2)c2ccccc2OC)cc1 (centres undefined),"inconclusive: 70.8 µM [inhibitor, partial curve, poor fit]"
10,CCN(CC)CC(=O)c1c(C)n(C)c2ccc(OC)cc12,active: 7.94 µM
11,CCOC(=O)c1ccccc1NC(=O)/C=C/C(=O)O,"inconclusive: 158 µM [inhibitor, partial curve, poor fit]"
12,CN(C)[C@@H]1CO[C@H](CNC(=O)c2cccs2)[C@H]1O,inactive
13,CCC(O)CNC(=O)c1cnn(-c2ncc3c(n2)-c2ccc(OC)cc2CC3)c1C1CC1 (centres undefined),inactive
14,O=C(NCc1c(F)cccc1F)c1cc(COc2c(F)cccc2F)on1,inactive
15,COC(=O)C(C)Sc1nc(C)nc2c1c(=O)n(C)c(=O)n2CC(C)C (centres undefined),inactive
16,Cc1ccc(N)c(OCc2ccccc2)c1,inactive
17,CO/N=C/c1ccc(Oc2ccc([N+](=O)[O-])cc2[N+](=O)[O-])c(OC)c1,inactive
18,CC(C)(C)n1c(O)c2n(c1=O)Cc1ccccc1N=C2c1ccccc1,"inconclusive: 89.1 µM [inhibitor, single point]"
19,CC(=O)N1CCN(c2ccc(NC(=S)NC(=O)c3ccc(C)c([N+](=O)[O-])c3)cc2)CC1,"inconclusive: 112 µM [inhibitor, partial curve, poor fit]"
20,Cc1cc(N/N=C/c2ccc(F)cc2)nc(NCc2ccccc2)n1,inactive
21,CC1=C(c2ccc(F)cc2)S(=O)(=O)NC1=NCc1ccccc1Cl,"inconclusive: 89.1 µM [inhibitor, partial curve, poor fit]"
22,N#Cc1ccc(C(c2nnnn2Cc2ccccc2)N2CCCC2)cc1 (centres undefined),"inconclusive: 28.2 µM [inhibitor, partial curve, poor fit]"
23,COc1cc2c(cc1OC)/C(=C/S(=O)(=O)c1ccc(C)c(C)c1)NCC2,"inconclusive: 28.2 µM [inhibitor, partial curve, poor fit]"
